These results are taken from paper PMC6969024.

Amino acid sequences for entries named in this document (tags omitted).
UniProt Q8BG87: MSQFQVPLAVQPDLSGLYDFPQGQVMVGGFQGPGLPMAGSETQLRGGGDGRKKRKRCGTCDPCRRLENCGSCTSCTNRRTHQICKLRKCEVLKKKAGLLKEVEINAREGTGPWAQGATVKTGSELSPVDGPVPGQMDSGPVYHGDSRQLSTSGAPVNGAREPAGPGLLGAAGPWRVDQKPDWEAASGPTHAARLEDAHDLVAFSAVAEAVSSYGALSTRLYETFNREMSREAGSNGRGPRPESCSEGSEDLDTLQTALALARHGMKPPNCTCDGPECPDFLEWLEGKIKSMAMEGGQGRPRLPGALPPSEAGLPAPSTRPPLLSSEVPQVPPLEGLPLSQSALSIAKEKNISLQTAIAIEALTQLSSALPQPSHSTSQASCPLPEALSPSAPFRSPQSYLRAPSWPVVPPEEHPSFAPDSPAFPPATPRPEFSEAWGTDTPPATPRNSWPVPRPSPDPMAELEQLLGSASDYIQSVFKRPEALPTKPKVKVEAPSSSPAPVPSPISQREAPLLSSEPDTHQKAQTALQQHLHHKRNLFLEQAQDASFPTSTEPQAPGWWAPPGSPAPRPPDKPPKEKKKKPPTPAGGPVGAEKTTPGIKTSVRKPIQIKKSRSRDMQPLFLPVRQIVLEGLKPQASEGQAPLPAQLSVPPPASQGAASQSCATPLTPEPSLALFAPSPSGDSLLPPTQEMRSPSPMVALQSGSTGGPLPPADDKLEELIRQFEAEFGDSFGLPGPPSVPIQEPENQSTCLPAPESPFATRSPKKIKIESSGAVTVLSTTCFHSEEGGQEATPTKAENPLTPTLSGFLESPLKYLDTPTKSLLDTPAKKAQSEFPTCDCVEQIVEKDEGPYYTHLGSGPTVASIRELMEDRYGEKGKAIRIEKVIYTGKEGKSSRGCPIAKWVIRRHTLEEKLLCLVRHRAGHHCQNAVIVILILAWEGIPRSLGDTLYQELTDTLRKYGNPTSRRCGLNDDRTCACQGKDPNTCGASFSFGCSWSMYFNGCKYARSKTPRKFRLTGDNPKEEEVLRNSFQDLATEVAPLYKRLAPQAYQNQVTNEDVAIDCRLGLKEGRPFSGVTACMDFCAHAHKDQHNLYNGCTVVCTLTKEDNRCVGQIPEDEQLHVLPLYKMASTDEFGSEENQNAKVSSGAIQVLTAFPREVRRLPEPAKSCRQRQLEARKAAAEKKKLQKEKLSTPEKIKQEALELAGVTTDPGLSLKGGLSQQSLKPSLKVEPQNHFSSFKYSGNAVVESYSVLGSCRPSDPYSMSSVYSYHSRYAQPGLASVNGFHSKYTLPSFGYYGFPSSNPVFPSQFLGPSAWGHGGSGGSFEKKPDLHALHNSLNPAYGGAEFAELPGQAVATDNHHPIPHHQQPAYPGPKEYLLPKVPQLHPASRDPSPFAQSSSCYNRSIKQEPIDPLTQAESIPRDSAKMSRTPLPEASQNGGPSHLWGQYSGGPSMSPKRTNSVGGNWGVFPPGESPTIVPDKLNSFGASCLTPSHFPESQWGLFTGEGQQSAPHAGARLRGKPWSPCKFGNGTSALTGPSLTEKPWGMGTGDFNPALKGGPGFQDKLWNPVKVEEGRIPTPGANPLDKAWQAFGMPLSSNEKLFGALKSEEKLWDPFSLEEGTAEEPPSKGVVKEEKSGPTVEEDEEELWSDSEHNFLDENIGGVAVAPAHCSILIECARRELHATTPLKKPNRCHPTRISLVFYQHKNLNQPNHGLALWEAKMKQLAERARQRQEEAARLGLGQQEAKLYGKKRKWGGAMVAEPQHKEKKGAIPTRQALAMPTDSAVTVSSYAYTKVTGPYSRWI

No constants are given. Whether binding was seen depends on the method and setting. Binding seen in cells or lysates may run through a third protein. Some binding calls cover weakened binding; strength is not graded here.

For assay [1], the target named is T1, FOXA2 (mouse (endogenous in mouse primary hepatocytes)) (UniProt P35583).
T1 sequence: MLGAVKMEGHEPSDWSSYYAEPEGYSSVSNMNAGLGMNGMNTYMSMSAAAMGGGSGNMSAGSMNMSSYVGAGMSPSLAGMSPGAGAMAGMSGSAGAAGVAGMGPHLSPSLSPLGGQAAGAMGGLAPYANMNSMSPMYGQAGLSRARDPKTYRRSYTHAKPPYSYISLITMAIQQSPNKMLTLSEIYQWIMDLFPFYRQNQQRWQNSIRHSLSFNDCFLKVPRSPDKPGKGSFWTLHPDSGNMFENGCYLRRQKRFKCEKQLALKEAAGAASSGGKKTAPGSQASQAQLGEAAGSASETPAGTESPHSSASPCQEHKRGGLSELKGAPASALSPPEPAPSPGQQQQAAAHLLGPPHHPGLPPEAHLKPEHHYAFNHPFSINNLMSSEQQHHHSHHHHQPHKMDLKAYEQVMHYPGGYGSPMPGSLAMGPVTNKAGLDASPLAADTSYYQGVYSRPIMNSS
The assay can be described thus: co-IP; lysate of H19 KO mouse hepatocytes infected with Ad-TET3 for 24 h; IP with rabbit polyclonal anti-TET3 or goat polyclonal anti-FOXA2 (preimmune IgG as control) on Protein A/G beads, 4 °C overnight, lysate at 150 mM NaCl, washes in IP buffer (1% Triton X-100, 300 mM NaCl, 10 mM Tris-HCl pH 7.5, 10 mM EDTA); immunoblot. (A western blot detects proteins with antibodies after separation by electrophoresis.)

Assay [2] has as its target TET3 (mouse full-length TET3 ORF expressed from the adenovirus Ad-TET3) (mouse) (UniProt Q8BG87). Described as above.
Assay [3] concerns the target TET3 (endogenous, WT mouse primary hepatocytes) (mouse (endogenous in mouse primary hepatocytes)) (UniProt Q8BG87). The assay can be described thus: co-IP; lysate of WT mouse primary hepatocytes treated with glucagon (20 nM) or vehicle for 24 h; IP with anti-TET3 antibody on Protein A/G beads, 4 °C overnight, washes in IP buffer (300 mM NaCl); immunoblot for FOXA2.

With “TET3 (mouse full-length TET3 ORF expressed from the adenovirus Ad-TET3) (from UniProt Q8BG87 1-1803)”, in assay [1], the binding entry was “binds”.

B1: FOXA2 (protein, UniProt P35583 1-459)
chain: MLGAVKMEGHEPSDWSSYYAEPEGYSSVSNMNAGLGMNGMNTYMSMSAAAMGGGSGNMSAGSMNMSSYVGAGMSPSLAGMSPGAGAMAGMSGSAGAAGVAGMGPHLSPSLSPLGGQAAGAMGGLAPYANMNSMSPMYGQAGLSRARDPKTYRRSYTHAKPPYSYISLITMAIQQSPNKMLTLSEIYQWIMDLFPFYRQNQQRWQNSIRHSLSFNDCFLKVPRSPDKPGKGSFWTLHPDSGNMFENGCYLRRQKRFKCEKQLALKEAAGAASSGGKKTAPGSQASQAQLGEAAGSASETPAGTESPHSSASPCQEHKRGGLSELKGAPASALSPPEPAPSPGQQQQAAAHLLGPPHHPGLPPEAHLKPEHHYAFNHPFSINNLMSSEQQHHHSHHHHQPHKMDLKAYEQVMHYPGGYGSPMPGSLAMGPVTNKAGLDASPLAADTSYYQGVYSRPIMNSS
Turning to B1, the binding result in assay [2] and in assay [3] was “binds” in each case.
